# Measured values reported in PubChem BioAssay AID1259423 (Fisher Drug Discovery Resource Center, 2018).
# “And” between values parts separate entries of the source, which are not always exact repeats. Identical values can stand only once. The list shows a part of the results. Some salts or complexes appear as unconnected parts, following the source record.
# Test system: Aedes aegypti neuropeptide Y-like receptor 7 (NPYLR7)
# Assay: agonists of mosquito NPYLR7 receptor, primary screen, cell-based, Aedes aegypti, calcium fluorescence, mosquito biting behavior (AID 1259423);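 also: 0% = vehicle and 100% = reference agonist at the receptor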
# Conditions: HEK293T NPYLR7/Galpha15, GCaMP6s calcium fluorescence; measured here: Max-Min RFU normalised activation; at 10 µM; stronger effect = higher value
row,SMILES,activation
1,O=P(Nc1ccccn1)(c1ccc(Br)cc1)c1ccc(Br)cc1,3.19%
2,CCOC(=O)NC(Sc1nc2ccccc2o1)C(Cl)(Cl)Cl (stereo not drawn),5.33%
3,CP(=O)(O)OC(c1ccccc1)C(F)(F)C(F)(F)F (stereo not drawn),1.65%
4,CCC(C)C(=O)N1CCCC(C(=O)OC2CN3CCC2CC3)C1 (stereo not drawn),2.93%
5,O=P(Nc1nccs1)(c1ccccc1)c1ccccc1,2.59%
6,Cc1cc(C)cc(OP(C)(=O)Nc2cc(Cl)ccc2C)c1 (stereo not drawn),12.8%
7,O=P1(Nc2nc(-c3ccc(F)cc3)cs2)C=C(c2ccccc2)OC(c2ccccc2)=C1,0.99%
8,CP(N)(=O)Oc1ccccc1F (stereo not drawn),-4.09%
9,O=P1(Nc2nncs2)C=C(c2ccccc2)SC(c2ccccc2)=C1,38.6%
10,CN1CC(=O)N(C)P1(C)=S (stereo not drawn),-0.244%
11,O=[N+]([O-])C1([N+](=O)[O-])COCOC1,24.1%
12,Cc1c([N+](=O)[O-])c([N+](=O)[O-])nn1CC(=O)Nc1ccc([N+](=O)[O-])cc1Cl,-8.13%
13,CN([N+](=O)[O-])C(Br)([N+](=O)[O-])[N+](=O)[O-],-18.8%
14,O=C(c1cccc([N+](=O)[O-])c1)c1ccc([N+](=O)[O-])c([N+](=O)[O-])c1,-6.02%
15,CN(C)c1ccc2c(c1)N1Cc3ccccc3C1=NP2(=O)c1ccccc1 (stereo not drawn),-12.8%
16,O=C(NC1CCS(=O)(=O)C1)NP(=S)(Oc1ccccc1)Oc1ccccc1 (stereo not drawn),-1.54%
17,CC1CCC(C(C)C)C(OP(=O)(Nc2nccs2)c2ccccc2)C1 (stereo not drawn),-3.76%
18,O=C(OC1CN2CCC1CC2)c1ccccc1 (stereo not drawn),-27.6%
19,CC[N+](CC)=C1SC2CS(=O)(=O)C(Br)C2(C)S1 (stereo not drawn),-9.38%
20,Cc1ccc(NP(C)(=O)Oc2ccc(Cl)cc2)cc1 (stereo not drawn),-9.67%
21,COc1cc(Br)c([N+](=O)[O-])nc1[N+](=O)[O-],-5.52%
22,Cn1cc([N+](=O)[O-])nc1[N+](=O)[O-],-1.87%

row,SMILES,activation
1,CP(=O)(Nc1cccc(F)c1)Oc1ccc(Cl)cc1 (stereo not drawn),0.488%
2,COP1(=S)c2c(C)nn(-c3ccccc3)c2N=C(c2ccc(F)cc2)N1C (stereo not drawn),-6.88%
3,O=P(C=C(Cl)c1ccccc1)(C=C(Cl)c1ccccc1)Nc1nncs1,-2.84%
4,CP(=O)(Nc1ccc(Cl)cc1Cl)Oc1ccccc1 (stereo not drawn),8.25%
5,O=C(O[C@H]1CN2CCC1CC2)C1NCc2ccccc2[C@@H]1c1ccccc1 (stereo partly drawn),0.864%
6,CC(C)(C)NC1=NCC(CI)S1 (stereo not drawn),-5.08%
7,CCN(CC)C1=NP(=O)(c2ccccc2)NC(c2ccccc2)=C1C#N (stereo not drawn),0.328%
8,CCOP(OCC)N1CCOCC1,-22%
9,O=P(O)(O)F,-9.86% and -6.36%
10,CP(=O)(Nc1ccc(F)cc1)Oc1ccc(Cl)cc1 (stereo not drawn),7.71%
11,Cc1c2non([O-])c-2c(C)[n+](=O)[n+]1[O-],-0.656%
12,O=C(NC(Sc1ccncn1)C(Cl)(Cl)Cl)c1ccccc1 (stereo not drawn),-16.3%
13,O=P(Nc1nccs1)(c1ccc(Br)cc1)c1ccc(Br)cc1,-1.06%
14,CCOP1(=S)c2c(C)nn(-c3ccccc3)c2N=C(c2ccccc2F)N1C (stereo not drawn),-5.56%
15,OCCSCCO,-19.8%
16,COc1ccc(OP(C)(=O)Nc2ccc(Br)cc2)cc1 (stereo not drawn),1.23%
17,Cc1ccc(NC(=O)COC(=O)C(C)(O)c2cccc(F)c2)c(C)c1 (stereo not drawn),3.68%
18,COc1cccc(C(OP(C)(=O)O)C(F)(F)F)c1 (stereo not drawn),9.78%
19,CP(=O)(Oc1ccc(F)cc1)OC(c1ccccc1)C(F)(F)F (stereo not drawn),1.13%
20,O=C(OC1CN2CCC1CC2)C1COc2ccccc2O1 (stereo not drawn),-3.24%
21,COP(=O)(NS(=O)(=O)c1ccc(Cl)cc1)OC,-4.3%
22,CCCCOP1(=S)N=C2c3ccccc3CN2c2cc(N(C)C)ccc21 (stereo not drawn),-5.33%

row,SMILES,activation
1,CC(C)(C)c1ccc(OP(C)(=O)O)cc1,10.7%
2,CCOP1(=S)c2c(C)nn(-c3ccccc3)c2N=C(c2ccccc2)N1C1CC1 (stereo not drawn),-12%
3,CCCCOP(=O)(OCCCC)N(CC)CC,-17.5%
4,CCCCOc1ccc(NP(C)(=O)Oc2ccc(CC)cc2)cc1 (stereo not drawn),-1.01%
5,N#Cc1ccc(-c2csc(NP3(=O)C=C(c4ccccc4)OC(c4ccccc4)=C3)n2)cc1,5.61%
6,CP(=O)(O)OC(c1ccccc1)C(F)(F)F (stereo not drawn),13.8%
7,O=C(CBr)c1ccc([N+](=O)[O-])cc1,1.13%
8,Nc1nonc1N=Nc1nonc1N,1.27%
9,CP(=O)(Nc1ccccc1Br)Oc1ccccc1 (stereo not drawn),7.17% and -1.43%
10,CP(=O)(O)OC(c1cccc(Cl)c1)C(F)(F)F (stereo not drawn),-5.25%
11,CP(=O)(Oc1ccccc1)OC(c1ccccc1)C(F)(F)F (stereo not drawn),10.3%
12,COC(=O)NC(c1ccccc1)P(=O)(Cl)Cl (stereo not drawn),0.913%
13,COP1(=S)c2c(C)nn(-c3ccccc3)c2N=C(c2ccccc2)N1C1CC1 (stereo not drawn),-13.6%
14,CN(C)CCS,0.051%
15,O=C1OC2C3CC(CC13)C2SC(CCl)C(F)(F)F (stereo not drawn),43.3%
16,COc1ccc2nc(NP(=O)(c3ccccc3)c3ccccc3)sc2c1,-7.51%
17,O=P(N=c1nc(-c2ccccc2)n(-c2ccccc2)s1)(N1CCOCC1)N1CCOCC1,2.07%
18,CN(C)C1=C(c2c([N+](=O)[O-])cc([N+](=O)[O-])cc2[N+](=O)[O-])CCCC1,-17.6%
19,CCOP(C)(=S)SCN(CC(=O)O)C(=O)OC (stereo not drawn),4.46%
20,CCCOP(=O)(OCCC)O/C(C)=C/SC#N,15%
21,Cc1cccc(C)c1OP(C)(N)=O (stereo not drawn),12.4%
22,O=P1(Nc2nc(-c3ccccc3)cs2)C=C(c2ccccc2)OC(c2ccccc2)=C1,37.1%

row,SMILES,activation
1,CP(=O)(Nc1ccc(Br)cc1)Oc1ccccc1 (stereo not drawn),15.8%
2,N#CCOC(=O)C(O)(c1ccccc1)c1ccccc1,-3.32%
3,CC(C)(C)c1ccc(OP(C)(N)=O)cc1 (stereo not drawn),9.16%
4,COP1(=S)N=C2c3ccccc3CN2c2cc(N(C)C)ccc21 (stereo not drawn),-6.12%
5,COc1ccc(OP(C)(=O)Nc2cccc(F)c2)cc1 (stereo not drawn),-0.655%
6,O=C(OC1CN2CCC1CC2)c1cccc2[nH]cnc12 (stereo not drawn),5.09%
7,CC(C)NC(=O)NP(=O)(Oc1ccccc1)Oc1ccccc1,-0.591%
8,Cc1cc(C)cc(OP(C)(N)=O)c1 (stereo not drawn),10.3%
9,CCN(C1=NCCCS1)P(O)(=S)CC (stereo not drawn),-9.93%
10,CP(=O)(O)OC(c1cccc(C(F)(F)F)c1)C(F)(F)F (stereo not drawn),-4.18%
11,Nc1nonc1OCCOc1nonc1N,-5.23%
12,CC(C)N(C(=O)C12CC3CC(C1)CC(P(=O)(Cl)Cl)(C3)C2)C(C)C,1.47%
13,CN1c2ccccc2N2CC(C)(CI)SC12 (stereo not drawn),6.78%
14,O=P(Nc1nccs1)(c1ccccc1)c1nc2ccccc2s1 (stereo not drawn),18.3%
15,CCOP1(=S)c2c(C)nn(CCC#N)c2N=C(c2ccccc2F)N1C (stereo not drawn),-7.27%
16,Cc1ccc(NP(C)(=O)Oc2ccc(C(C)(C)C)cc2)cc1 (stereo not drawn),1.11%
17,COc1cccc(OP(=NC(=S)N2CCOCC2)(C(C)(C)C)C(C)(C)C)c1,4.6%
18,CN(C(=O)Cc1ccccc1)[C@@H]1CC[C@]2(CCCO2)C[C@H]1N1CCCC1,19.2%
19,Cc1ccnc(NP2(=O)C=C(c3ccccc3)OC(c3ccccc3)=C2)c1,-6.56%
20,CCOP1(=S)c2c(C)nn(-c3ccccc3)c2N=C(c2ccc(F)cc2)N1C (stereo not drawn),-6.16%
21,NC(=O)Nc1ccc([As](=O)(O)O)cc1,-10.9%
22,Cc1ccc(NP(C)(=O)Oc2ccc(C(C)C)cc2)cc1C (stereo not drawn),8.45%

row,SMILES,activation
1,CN(CCCl)Cc1cc2cc(I)ccc2s1,-5.92%
2,COc1cc(-n2cnnn2)ccc1-n1cnnn1,2%
3,CN(C(=O)Cc1ccc(Cl)c(Cl)c1)[C@@H]1CC[C@]2(CCCO2)C[C@H]1N1CCCC1,-35.6%
4,Cc1ccc(NP(=O)(OCC(F)(F)F)OCC(F)(F)F)nc1,15%
5,CN1C(=O)C2C(N=C(N3CCOCC3)N2CCc2ccccc2)N(C)C1=O (stereo not drawn),-5.82%
6,CC(=O)N(CCN(C(C)=O)[N+](=O)[O-])[N+](=O)[O-],-14.7%
7,CCOP(=O)(NC(=NC(C)c1ccccc1)NC(C)c1ccccc1)OCC (stereo not drawn),0.0822%
8,CN(CCCl)Cc1cc(Cl)c(NC2=NCCN2)c(Cl)c1,-7.34%
9,C/C1=C2N=C(/C=C3N=C(/C(C)=C4\[N-]C(C)(C5N=C1C(C)(CCC(=O)NCC(C)OP(=O)(O)OC1C(CO)OC(n6cnc7cc(C)c(C)cc76)C1O)C5CC(N)=O)C(C)(CC(N)=O)C4CCC(N)=O)C(C)(CC(N)=O)C\3CCC(N)=O)C(C)(C)C/2CCC(N)=O.[C-]#N.[Co+3] (stereo not drawn),-8.68%
10,CP(=O)(Nc1ccc(Br)cc1)Oc1ccc(Cl)cc1 (stereo not drawn),12.3%
11,BrC1CSc2nc3ccccc3n2C1c1ccccc1 (stereo not drawn),4.95%
12,CC1CCC(C(C)C)C(OP(=O)(Nc2ccccn2)c2ccccc2)C1 (stereo not drawn),3.65% and -0.902%
13,Cc1n[n+]2c([nH]c1=O)SCC(Br)C2c1ccccc1 (stereo not drawn),-6.54%
14,Cc1ccc(Cl)cc1NP(C)(=O)Oc1ccccc1 (stereo not drawn),-12.3%
15,COc1ccc(OP(C)(=O)Nc2ccc(Cl)cc2)cc1 (stereo not drawn),9.49%
16,O=[N+]([O-])c1ccc(-c2csc(NP3(=O)C=C(c4ccccc4)OC(c4ccccc4)=C3)n2)cc1,-11%
17,O=C1c2no[n+]([O-])c2C(=O)c2no[n+]([O-])c21,-15.7%
18,Nc1cc([N+](=O)[O-])cc([N+](=O)[O-])c1O,-2.43%
19,CN1CC(=O)NC1=NP(=O)(OCc1ccccc1)OCc1ccccc1,-1.89%
20,CCSP(=O)(c1ccccc1)c1ccccc1,2.96%
